From patent US20240025996A1 (FRED HUTCHINSON CANCER CENTER, published 2024)
No constants are given. Whether binding was seen depends on the method and setting. Some results given as binding are weak or reduced against the parent protein; the word gives no strength. Each block holds one binder with its values, some of them ahead of it.

Chains of the proteins cited; added tags and fusions are not shown. Residues count along the entry.
soluble ROR1 ectodomain (Q01973, residues 30-406): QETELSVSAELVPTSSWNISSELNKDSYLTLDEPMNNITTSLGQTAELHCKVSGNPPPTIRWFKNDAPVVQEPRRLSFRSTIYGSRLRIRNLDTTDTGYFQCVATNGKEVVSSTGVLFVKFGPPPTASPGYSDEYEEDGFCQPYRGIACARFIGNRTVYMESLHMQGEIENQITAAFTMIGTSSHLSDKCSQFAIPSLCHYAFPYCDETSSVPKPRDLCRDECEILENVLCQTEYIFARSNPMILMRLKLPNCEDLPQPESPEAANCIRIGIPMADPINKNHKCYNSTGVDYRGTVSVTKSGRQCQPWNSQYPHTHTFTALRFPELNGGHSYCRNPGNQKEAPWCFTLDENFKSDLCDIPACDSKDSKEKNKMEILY
ROR1 Kringle fragment (Q01973, residues 312-391): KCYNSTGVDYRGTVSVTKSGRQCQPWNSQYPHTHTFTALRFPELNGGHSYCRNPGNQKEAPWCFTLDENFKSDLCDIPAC

Columns and labels:
soluble ROR1 ectodomain = biological target: T1, soluble ROR1 ectodomain (UniProt Q01973 30-406); experiment: size exclusion chromatography of the complex
T1 construct: extracellular domain; also called ROR1-A647

ROR1 Kringle fragment = ROR1 Kringle fragment (UniProt Q01973); experiment: Superdex 200 SEC of the complex with the Kringle fragment

binding (soluble ROR1 ectodomain): binds
binding (ROR1 Kringle fragment): binds
B1: Nb14 WT (VHH)
VHH: QVKLVQSGGGLVQTGGSLRLSCAASEITFDMYSMGWYREAPGKARDAVASITNRGNTYYADSVKGRFTISRDNAKKTMYLQMNSLKPEDTAVYYCNVYRTGFSDYWGQGTQVTVSS
notes: also called free Nb14

binding (soluble ROR1 ectodomain): binds
binding (ROR1 Kringle fragment): binds
B2: Nb11 WT (VHH)
VHH: QVKLVQSGGGLVQAGGSLRLSCAASGSIFSSASMGWYRQAPGKPREQVASITRDGNTYYEDDVKGRFTISRDNARSTGYLQMNSLTPEDTGVYYCNVYQLGFYDKWGQGTQVIVSS
notes: also called free Nb11
